{"source": "the supplement of paper PMC8866396", "note": "± gives the standard deviation of the averaged measurements. This is one part of the list. Repeats in this data set agree poorly, so a single value says little.", "data": [{"tested_on": "IL-6-GFP PC-9", "assay": "IL-6-GFP fluorescence relative to DMSO control (fraction of control); higher = more IL-6-GFP expression", "details": "compound concentration: 10 uM; treatment time: 48 h", "experimental": "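IL-6-GFP-overexpressing PC-9 and PC-9GR EGFR-mutant lung cancer cells (3000 cells/well, 96-well) were treated for 48 h with each compound of the Selleck L2000 library at 10 uM. IL-6-GFP fluorescence was read on a high-content screening system, and viability by CCK-8 absorbance on a parallel plate set. Each value was normalised as compound well / DMSO control well; two independent replicates.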", "values": [{"molecule": "CC(C)Cc1ccc(C(C)C(=O)O)cc1.NCCCCC(N)C(=O)O", "note": "(configuration not stated) [Ibuprofen Lysine]", "IL-6-GFP fluorescence": "0.651 ± 0.3"}, {"molecule": "CC(=O)OC12COC1CC(O)C1(C)C(=O)C(O)C3=C(C)C(OC(=O)C(O)C(NC(=O)OC(C)(C)C)c4ccccc4)CC(O)(C(OC(=O)c4ccccc4)C21)C3(C)C.O.O.O", "note": "(configuration not stated) [Docetaxel Trihydrate]", "IL-6-GFP fluorescence": "1.007 ± 0.0082"}, {"molecule": "CCCCC(CC)CN1CN(CC(CC)CCCC)CC(C)(N)C1", "note": "(configuration not stated) [Hexetidine]", "IL-6-GFP fluorescence": "0.83 ± 0.13"}, {"molecule": "Cc1ccc(C2OC(CO)C(O)C(O)C2O)cc1Cc1ccc(-c2ccc(F)cc2)s1.Cc1ccc(C2OC(CO)C(O)C(O)C2O)cc1Cc1ccc(-c2ccc(F)cc2)s1.O", "note": "(configuration not stated) [Canagliflozin hemihydrate]", "IL-6-GFP fluorescence": "0.835 ± 0.086"}, {"molecule": "CC(O)CO.CCOc1ccc(Cc2cc(C3OC(CO)C(O)C(O)C3O)ccc2Cl)cc1.O", "note": "(configuration not stated) [Dapagliflozin propanediol monohydrate]", "IL-6-GFP fluorescence": "0.762 ± 0.047"}, {"molecule": "COc1cc2nccc(Oc3ccc(NC(=O)NC4CC4)c(Cl)c3)c2cc1C(N)=O", "note": "[Lenvatinib (E7080)]", "IL-6-GFP fluorescence": "0.874 ± 0.068"}, {"molecule": "CNC1CCC(c2ccc(Cl)c(Cl)c2)c2ccccc21.Cl", "note": "(configuration not stated) [Sertraline HCl]", "IL-6-GFP fluorescence": "1.05 ± 0.11"}]}]}
